Data published in patent US20240043519A1.
These are yes or no findings as the source states them, for the method shown. For part of these data: In cells and extracts the contact can be indirect. Some results given as binding are weak or reduced against the parent protein; the word gives no strength.

Sequences of proteins named here, by UniProt entry; tags and fusion partners are left off. Residues count along the entry.
UniProt P46531, residues 19-2555: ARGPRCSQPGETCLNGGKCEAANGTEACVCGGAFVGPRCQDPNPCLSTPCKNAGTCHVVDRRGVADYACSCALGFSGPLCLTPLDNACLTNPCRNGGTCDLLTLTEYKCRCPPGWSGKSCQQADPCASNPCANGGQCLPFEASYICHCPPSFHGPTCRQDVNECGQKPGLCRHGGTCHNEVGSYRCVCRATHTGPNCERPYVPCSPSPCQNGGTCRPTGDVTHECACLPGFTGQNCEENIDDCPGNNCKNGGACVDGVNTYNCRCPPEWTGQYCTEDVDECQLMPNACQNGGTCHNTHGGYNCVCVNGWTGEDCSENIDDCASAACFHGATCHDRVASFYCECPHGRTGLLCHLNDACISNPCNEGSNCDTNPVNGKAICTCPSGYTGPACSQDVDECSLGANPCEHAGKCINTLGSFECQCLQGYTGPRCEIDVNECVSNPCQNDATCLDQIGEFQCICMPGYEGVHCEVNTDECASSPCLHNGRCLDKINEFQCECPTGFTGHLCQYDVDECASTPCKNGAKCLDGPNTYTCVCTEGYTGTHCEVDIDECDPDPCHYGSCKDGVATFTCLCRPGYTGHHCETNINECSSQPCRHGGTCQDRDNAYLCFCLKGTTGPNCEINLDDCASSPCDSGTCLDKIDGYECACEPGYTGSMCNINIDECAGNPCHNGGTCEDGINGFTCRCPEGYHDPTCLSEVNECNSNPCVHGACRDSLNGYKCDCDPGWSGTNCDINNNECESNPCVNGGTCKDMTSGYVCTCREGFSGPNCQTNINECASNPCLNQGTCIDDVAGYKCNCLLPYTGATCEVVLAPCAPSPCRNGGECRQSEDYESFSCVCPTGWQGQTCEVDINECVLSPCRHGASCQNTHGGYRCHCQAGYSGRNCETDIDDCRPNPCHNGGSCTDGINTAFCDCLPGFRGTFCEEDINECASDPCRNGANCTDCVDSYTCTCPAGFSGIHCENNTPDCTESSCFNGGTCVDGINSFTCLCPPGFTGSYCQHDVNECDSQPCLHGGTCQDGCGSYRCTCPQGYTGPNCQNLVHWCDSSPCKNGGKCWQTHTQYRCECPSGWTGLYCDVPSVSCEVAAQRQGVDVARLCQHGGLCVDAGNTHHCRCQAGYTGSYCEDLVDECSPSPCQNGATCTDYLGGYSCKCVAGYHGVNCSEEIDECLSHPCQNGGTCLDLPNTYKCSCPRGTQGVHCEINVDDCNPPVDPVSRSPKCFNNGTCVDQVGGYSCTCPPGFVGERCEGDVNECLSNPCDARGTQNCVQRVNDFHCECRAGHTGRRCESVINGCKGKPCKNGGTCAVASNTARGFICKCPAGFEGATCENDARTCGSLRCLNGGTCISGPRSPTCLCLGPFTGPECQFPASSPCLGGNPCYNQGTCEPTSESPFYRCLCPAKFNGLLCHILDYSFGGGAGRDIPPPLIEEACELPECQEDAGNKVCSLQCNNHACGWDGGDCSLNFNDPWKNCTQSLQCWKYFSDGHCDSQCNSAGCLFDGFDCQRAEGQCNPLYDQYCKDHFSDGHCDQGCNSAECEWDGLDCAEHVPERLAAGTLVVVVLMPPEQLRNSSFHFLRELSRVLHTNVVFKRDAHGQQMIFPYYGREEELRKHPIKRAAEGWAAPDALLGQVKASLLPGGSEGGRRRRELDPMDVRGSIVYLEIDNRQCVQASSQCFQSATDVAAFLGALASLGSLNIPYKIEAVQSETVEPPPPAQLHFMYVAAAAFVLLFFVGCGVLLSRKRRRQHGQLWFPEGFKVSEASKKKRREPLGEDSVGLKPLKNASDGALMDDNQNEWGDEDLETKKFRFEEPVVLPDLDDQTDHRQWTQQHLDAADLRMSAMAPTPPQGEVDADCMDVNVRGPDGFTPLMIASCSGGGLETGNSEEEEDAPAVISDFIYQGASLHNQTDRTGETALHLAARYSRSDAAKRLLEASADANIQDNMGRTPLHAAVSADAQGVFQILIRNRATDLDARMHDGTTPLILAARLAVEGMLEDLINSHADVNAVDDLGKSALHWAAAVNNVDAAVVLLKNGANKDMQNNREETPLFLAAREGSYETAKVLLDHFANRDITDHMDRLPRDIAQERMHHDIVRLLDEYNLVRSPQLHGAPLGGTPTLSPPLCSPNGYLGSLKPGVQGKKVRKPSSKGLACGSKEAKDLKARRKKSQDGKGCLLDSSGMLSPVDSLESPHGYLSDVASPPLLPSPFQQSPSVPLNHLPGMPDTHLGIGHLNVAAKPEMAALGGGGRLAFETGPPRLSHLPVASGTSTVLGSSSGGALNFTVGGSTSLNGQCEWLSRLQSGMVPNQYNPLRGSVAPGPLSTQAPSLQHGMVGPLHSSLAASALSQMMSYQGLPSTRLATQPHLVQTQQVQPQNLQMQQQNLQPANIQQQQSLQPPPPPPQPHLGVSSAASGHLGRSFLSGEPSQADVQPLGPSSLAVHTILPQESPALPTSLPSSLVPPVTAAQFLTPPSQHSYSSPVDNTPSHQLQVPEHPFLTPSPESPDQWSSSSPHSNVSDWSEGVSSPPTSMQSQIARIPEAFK
UniProt Q9UM47, residues 40-2321: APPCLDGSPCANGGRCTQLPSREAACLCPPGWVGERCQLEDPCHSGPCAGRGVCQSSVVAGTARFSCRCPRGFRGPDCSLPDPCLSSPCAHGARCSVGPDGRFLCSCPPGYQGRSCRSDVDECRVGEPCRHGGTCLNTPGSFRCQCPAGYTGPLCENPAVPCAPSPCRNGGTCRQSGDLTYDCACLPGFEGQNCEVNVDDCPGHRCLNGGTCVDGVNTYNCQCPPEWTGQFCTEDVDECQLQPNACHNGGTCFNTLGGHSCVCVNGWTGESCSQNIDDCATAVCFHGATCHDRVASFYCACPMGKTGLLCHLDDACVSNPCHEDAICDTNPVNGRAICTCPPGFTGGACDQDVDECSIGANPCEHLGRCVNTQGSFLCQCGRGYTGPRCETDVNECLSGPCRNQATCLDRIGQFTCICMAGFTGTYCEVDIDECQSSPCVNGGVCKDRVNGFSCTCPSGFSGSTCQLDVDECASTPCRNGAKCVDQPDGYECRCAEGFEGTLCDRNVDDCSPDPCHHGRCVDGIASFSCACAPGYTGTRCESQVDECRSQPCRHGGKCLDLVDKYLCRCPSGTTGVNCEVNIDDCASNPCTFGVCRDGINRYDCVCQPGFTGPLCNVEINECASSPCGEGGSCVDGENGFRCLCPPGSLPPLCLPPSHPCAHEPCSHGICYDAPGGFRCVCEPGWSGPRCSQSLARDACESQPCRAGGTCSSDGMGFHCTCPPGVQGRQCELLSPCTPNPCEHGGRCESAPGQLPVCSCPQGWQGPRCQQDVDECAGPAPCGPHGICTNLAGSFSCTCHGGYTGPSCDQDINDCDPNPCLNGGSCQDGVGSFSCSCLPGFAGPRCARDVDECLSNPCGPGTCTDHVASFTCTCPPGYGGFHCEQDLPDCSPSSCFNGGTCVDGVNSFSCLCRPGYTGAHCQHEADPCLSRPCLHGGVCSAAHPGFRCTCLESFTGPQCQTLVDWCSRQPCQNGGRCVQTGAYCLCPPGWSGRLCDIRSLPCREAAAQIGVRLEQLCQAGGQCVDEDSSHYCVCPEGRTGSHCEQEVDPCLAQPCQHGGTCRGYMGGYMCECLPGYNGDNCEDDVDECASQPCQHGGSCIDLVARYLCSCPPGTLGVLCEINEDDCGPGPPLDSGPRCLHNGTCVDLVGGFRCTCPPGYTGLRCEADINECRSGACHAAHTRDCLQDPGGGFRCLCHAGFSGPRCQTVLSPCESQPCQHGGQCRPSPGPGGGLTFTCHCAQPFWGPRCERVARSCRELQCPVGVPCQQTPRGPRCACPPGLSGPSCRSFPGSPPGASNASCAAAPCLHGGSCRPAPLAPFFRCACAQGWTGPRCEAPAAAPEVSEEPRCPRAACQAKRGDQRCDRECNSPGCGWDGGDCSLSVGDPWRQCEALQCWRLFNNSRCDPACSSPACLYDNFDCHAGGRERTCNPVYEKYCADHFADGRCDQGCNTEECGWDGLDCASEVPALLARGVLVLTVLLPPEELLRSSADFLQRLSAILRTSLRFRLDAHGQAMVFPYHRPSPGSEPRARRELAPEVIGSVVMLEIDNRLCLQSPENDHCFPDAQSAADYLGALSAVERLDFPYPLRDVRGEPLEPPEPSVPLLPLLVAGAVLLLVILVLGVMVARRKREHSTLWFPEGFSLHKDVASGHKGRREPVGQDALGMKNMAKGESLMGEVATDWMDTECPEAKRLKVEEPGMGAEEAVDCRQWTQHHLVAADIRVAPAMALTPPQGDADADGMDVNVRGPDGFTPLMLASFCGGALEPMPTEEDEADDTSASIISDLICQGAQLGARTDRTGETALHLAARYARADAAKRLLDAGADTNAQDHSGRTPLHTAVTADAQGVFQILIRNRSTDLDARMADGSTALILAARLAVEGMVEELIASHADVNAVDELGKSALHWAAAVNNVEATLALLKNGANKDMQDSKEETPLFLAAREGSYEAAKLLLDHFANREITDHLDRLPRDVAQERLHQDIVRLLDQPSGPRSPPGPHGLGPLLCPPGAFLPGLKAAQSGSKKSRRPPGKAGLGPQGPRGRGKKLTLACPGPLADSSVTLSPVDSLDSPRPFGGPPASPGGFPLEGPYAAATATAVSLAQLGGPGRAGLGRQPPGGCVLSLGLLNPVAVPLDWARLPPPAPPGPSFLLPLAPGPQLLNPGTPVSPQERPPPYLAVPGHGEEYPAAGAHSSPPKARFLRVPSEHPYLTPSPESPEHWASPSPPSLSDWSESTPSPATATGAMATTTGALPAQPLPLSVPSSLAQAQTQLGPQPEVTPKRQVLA

Legend:
[1] = molecular target: NOTCH1 (human) (UniProt P46531); assay: antibody interaction array (~400 antibodies) with AML blast lysate plus rEGFL7, detected with anti-EGFL7-HRP against anti-GST-HRP control
[2] = molecular target: NOTCH1 (human) (UniProt P46531); assay: antibody interaction array with AML blast lysate plus rEGFL7
[3] = molecular target: NOTCH3 (human) (UniProt Q9UM47); assay: co-immunoprecipitation, Kasumi-1 cell lysate, immunoblot

Row | binding [1] | binding [2] | binding [3] | Binder
1 | binds | binds | – | recombinant human EGFL7 protein (ligand) TEHAYRPGRRVCAVRAHGDPVSESFVQRVYQPFLTTCDGHRACSTYRTIYRTAYRRSPGLAPARPRYACCPGWKRTSGLPGACGAAICQPPCRNGGSCVQPGRCRCPAGWRGDTCQSDVDECSARRGGCPQRCVNTAGSYWCQCWEGHSLSADGTLCVPKGGPPRVAPNPTGVDSAMKEEVQRLQSRVDLLEEKLQLVLAPLHSLASQALEHGLPDPGSLLVHSFQQLGRIDSLSEQISFLEEQLGSCSCKKDS
2 | – | – | binds | EGFL7 protein (endogenous, in lysates of human AML cells: Kasumi-1, THP-1, primary AML patient blasts) (ligand) TEHAYRPGRRVCAVRAHGDPVSESFVQRVYQPFLTTCDGHRACSTYRTIYRTAYRRSPGLAPARPRYACCPGWKRTSGLPGACGAAICQPPCRNGGSCVQPGRCRCPAGWRGDTCQSDVDECSARRGGCPQRCVNTAGSYWCQCWEGHSLSADGTLCVPKGGPPRVAPNPTGVDSAMKEEVQRLQSRVDLLEEKLQLVLAPLHSLASQALEHGLPDPGSLLVHSFQQLGRIDSLSEQISFLEEQLGSCSCKKDS
